Measurements reported in PubChem BioAssay AID1259254 (NCATS, 2017).

- Screen: 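Genome-wide screen for genes that prevent DNA re-replication in cancer cells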 (primary screen)
- Cells: human HCT116 colorectal cancer cells
- Knock-down reagent: single siRNA against human genes
- Time to read-out: 3 days
- Detection: 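Nuclei stained with Hoechst and imaged; cell-cycle phase assigned by DNA content; G2 share scaled per plate, non-targeting siRNA 0%, GMNN siRNA 100%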
- Direction: G2 robust z-score and G2 cells, % of GMNN control: higher = more G2 cells, more excess DNA replication; raw share of cells in G2: higher = larger share of cells with G2 DNA content
- Call rule: 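Active siRNAs have a G2 robust z of 5 or more median absolute deviations over the median, which in these data means about 38% or higher of GMNN control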
This is a random part of about 59,000 reagents. Of all reagents, about 1,550 (2.6%) got an active call. 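G2 share is only a proxy for re-replication; each gene was hit by three separate siRNAs, and active genes were retested.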 The raw values are shown without normalisation. Unmarked entries are inactive. The numbers tell different reagents against one gene apart. Not stated in the record: the amount of reagent.

target gene | reagent | G2 robust z-score | G2 cells, % of GMNN control | raw share of cells in G2 (%)
MTHFD2 | 1 | -1.55 | -7.92 | 2.25
MTHFD2 | 2 | -0.307 | 0.807 | 6.8
MTHFD2 | 3 | -0.456 | -0.244 | 3.76
GUCA1A (guanylate cyclase activator 1A) | 1 | -1.51 | -7.64 | 1.4
GUCA1A (guanylate cyclase activator 1A) | 2 | -0.932 | -3.59 | 4.32
GUCA1A (guanylate cyclase activator 1A) | 3 | -0.0293 | 2.76 | 6.05
ELN (elastin) | 1 | -0.58 | -1.12 | 4.84
ELN (elastin) | 2 | 2.4 | 19.8 | 10.7
ELN (elastin) | 3 | -0.339 | 0.581 | 5.45
SLC22A17 | 1 | 0.391 | 5.72 | 8.55
SLC22A17 | 2 | -1.14 | -5.03 | 2.38
SLC22A17 | 3 | 0.228 | 4.57 | 5.55
AP3B2 (adaptor related protein complex 3 subunit beta 2) | 1 | 0.366 | 5.54 | 5.37
AP3B2 (adaptor related protein complex 3 subunit beta 2) | 2 | -0.56 | -0.97 | 5.56
AP3B2 (adaptor related protein complex 3 subunit beta 2) | 3 | -0.585 | -1.15 | 2.86
MAGEB2 (MAGE family member B2) | 1 | -0.866 | -3.13 | 3.64
MAGEB2 (MAGE family member B2) | 2 | 0.163 | 4.12 | 5.85
MAGEB2 (MAGE family member B2) | 3 | -0.506 | -0.593 | 3.14
PDCD6 (programmed cell death 6) | 1 | -0.536 | -0.806 | 3.26
PDCD6 (programmed cell death 6) | 2 | -1.14 | -5.03 | 3.75
PDCD6 (programmed cell death 6) | 3 | -0.292 | 0.915 | 3.72
FOLH1B (folate hydrolase 1B (pseudogene)) | 1 | 0.998 | 9.99 | 9.82
FOLH1B (folate hydrolase 1B (pseudogene)) | 2 | 1.01 | 10.1 | 7.8
FOLH1B (folate hydrolase 1B (pseudogene)) | 3 | -0.769 | -2.44 | 3.35
KIF5A (kinesin family member 5A) | 1 | -0.51 | -0.619 | 4.82
KIF5A (kinesin family member 5A) | 2 | 0.128 | 3.87 | 5.62
KIF5A (kinesin family member 5A) | 3 | 0.632 | 7.41 | 8.51
ADGRG7 (adhesion G protein-coupled receptor G7) | 1 | -0.966 | -3.83 | 4.47
ADGRG7 (adhesion G protein-coupled receptor G7) | 2 | -0.937 | -3.63 | 3.25
ADGRG7 (adhesion G protein-coupled receptor G7) | 3 | 0.107 | 3.72 | 4.41

Entries above whose target name begins with S or s (3):
target gene | reagent | G2 robust z-score | G2 cells, % of GMNN control | raw share of cells in G2 (%)
SLC22A17 | 1 | 0.391 | 5.72 | 8.55
SLC22A17 | 2 | -1.14 | -5.03 | 2.38
SLC22A17 | 3 | 0.228 | 4.57 | 5.55
